# Data published in article PMC9200286.
# The chains behind the UniProt entries cited, without tags or fusion partners.
# UniProt Q61026: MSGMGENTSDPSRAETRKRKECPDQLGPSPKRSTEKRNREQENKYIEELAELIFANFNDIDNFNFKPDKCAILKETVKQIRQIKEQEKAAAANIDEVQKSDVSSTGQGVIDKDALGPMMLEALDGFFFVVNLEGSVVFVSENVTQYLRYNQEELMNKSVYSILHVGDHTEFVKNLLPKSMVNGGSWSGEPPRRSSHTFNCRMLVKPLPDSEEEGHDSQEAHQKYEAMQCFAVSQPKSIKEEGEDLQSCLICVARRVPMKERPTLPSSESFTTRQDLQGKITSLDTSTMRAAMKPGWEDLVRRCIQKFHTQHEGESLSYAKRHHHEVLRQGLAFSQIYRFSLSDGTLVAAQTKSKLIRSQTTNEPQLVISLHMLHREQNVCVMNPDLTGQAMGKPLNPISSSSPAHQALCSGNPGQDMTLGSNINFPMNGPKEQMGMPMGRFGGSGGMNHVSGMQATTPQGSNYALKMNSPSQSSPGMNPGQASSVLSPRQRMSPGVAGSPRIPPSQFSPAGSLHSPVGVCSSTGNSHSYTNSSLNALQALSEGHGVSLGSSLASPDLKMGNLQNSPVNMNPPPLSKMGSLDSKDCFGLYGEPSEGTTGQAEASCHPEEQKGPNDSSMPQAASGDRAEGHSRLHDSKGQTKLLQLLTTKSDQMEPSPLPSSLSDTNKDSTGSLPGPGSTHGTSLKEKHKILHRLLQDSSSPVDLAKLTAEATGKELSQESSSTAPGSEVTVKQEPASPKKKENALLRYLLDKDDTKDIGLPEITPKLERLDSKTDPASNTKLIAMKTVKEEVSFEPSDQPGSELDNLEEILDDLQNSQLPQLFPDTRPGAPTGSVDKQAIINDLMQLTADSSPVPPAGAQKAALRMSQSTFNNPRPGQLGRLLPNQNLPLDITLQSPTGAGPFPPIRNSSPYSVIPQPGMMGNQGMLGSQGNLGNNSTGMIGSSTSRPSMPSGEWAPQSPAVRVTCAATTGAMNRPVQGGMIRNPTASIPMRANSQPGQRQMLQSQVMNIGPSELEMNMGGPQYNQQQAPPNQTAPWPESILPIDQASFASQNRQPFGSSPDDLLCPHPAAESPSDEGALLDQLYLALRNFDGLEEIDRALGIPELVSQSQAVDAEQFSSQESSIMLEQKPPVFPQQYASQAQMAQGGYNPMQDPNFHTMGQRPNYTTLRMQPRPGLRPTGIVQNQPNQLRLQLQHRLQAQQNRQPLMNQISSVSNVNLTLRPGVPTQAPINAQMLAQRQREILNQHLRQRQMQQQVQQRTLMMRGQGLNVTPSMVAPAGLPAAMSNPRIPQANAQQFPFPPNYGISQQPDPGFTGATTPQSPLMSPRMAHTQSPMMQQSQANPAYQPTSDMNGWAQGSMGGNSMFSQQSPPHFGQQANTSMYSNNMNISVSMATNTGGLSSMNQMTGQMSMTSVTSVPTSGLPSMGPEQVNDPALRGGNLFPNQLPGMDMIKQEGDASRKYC
# Results are given in words; binding and its absence hold for the method and conditions named. In cells and extracts the contact can be indirect. Some entries that bind do so weakly or less than the wild type.
# B1: NFAT1 (protein, UniProt Q60591 1-927)
# chain: MDVPEPQPDPDGGDGPGHEPGGSPQDELDFSILFDYDYLNPIEEEPIAHKAISSPSGLAYPDDVLDYGLKPCNPLASLSGEPPGRFGEPDSIGFQNFLSPVKPAGASGPSPRIEITPSHELMQAGGALRGRDAGLSPEQPALALAGVAASPRFTLPVPGYEGYREPLCLSPASSGSSASFISDTFSPYTSPCVSPNNAGPDDLCPQFQNIPAHYSPRTSPIMSPRTSLAEDSCLGRHSPVPRPASRSSSPGAKRRHSCAEALVAPLPAASPQRSRSPSPQPSPHVALQDDSIPAGYPPTAGSAVLMDALNTLATDSPCGIPSKIWKTSPDPTPVSTAPSKAGLARHIYPTVEFLGPCEQEERRNSAPESILLVPPTWPKQLVPAIPICSIPVTASLPPLEWPLSNQSGSYELRIEVQPKPHHRAHYETEGSRGAVKAPTGGHPVVQLHGYMENKPLGLQIFIGTADERILKPHAFYQVHRITGKTVTTTSYEKIVGNTKVLEIPLEPKNNMRATIDCAGILKLRNADIELRKGETDIGRKNTRVRLVFRVHVPEPSGRIVSLQAASNPIECSQRSAHELPMVERQDMDSCLVYGGQQMILTGQNFTAESKVVFMEKTTDGQQIWEMEATVDKDKSQPNMLFVEIPEYRNKHIRVPVKVNFYVINGKRKRSQPQHFTYHPVPAIKTEPSDEYEPSLICSPAHGGLGSQPYYPQHPMLAESPSCLVATMAPCQQFRSGLSSPDARYQQQSPAAALYQRSKSLSPGLLGYQQPSLLAAPLGLADAHRSVLVHAGSQGQGQGSTLPHTSSASQQASPVIHYSPTNQQLRGGGHQEFQHIMYCENFGPSSARPGPPPINQGQRLSPGAYPTVIQQQTAPSQRAAKNGPSDQKEALPTGVTVKQEQNLDQTYLDDVNEIIRKEFSGPPSRNQT
# Biological target: Steroid nuclear receptor coactivator 2 (mouse (endogenous in CD4+ T cells of SRC2fl/fl mice)) (UniProt Q61026)
# Assay: co-IP; anti-SRC2 antibody immunoprecipitation from lysate of SRC2fl/fl CD4+ cells 24 hours after Treg polarization; Pierce IP Lysis Buffer (1% Triton X-100, 20 mM tris-Cl pH 7.4, 150 mM NaCl, 5 mM EDTA), overnight with antibody, protein A/G Sepharose beads 4 hours at 4°C; immunoblot for NFAT1
binder,measurement,value
B1,binding,binds
